What all share (assay): log2 fold change, soluble protein after heating vs DMSO (PISA); higher = thermal stabilisation; K562 lysate, 10 uM; active = over 0.2 and 3.5 SD of the protein, either way, in both replicates (recomputed)
Compound in assay [1]: CCCS(=O)(=O)Nc1ccc(F)c(C(=O)c2c[nH]c3ncc(-c4ccc(Cl)cc4)cc23)c1F [vemurafenib]
The gist of the method:
(§1)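 Soluble protein was defined as the supernatant remaining after 21,000xg for 90 min, following pooling of heated aliquots and adjustment to 0.5% NP-40 at 4°C. Before that, crude K562 extract at 1 mg/mL protein in PBS pH 7.4 with 1 mM MgCl2 was treated with 10 μM compound for 30 min and heated for 3 min across 48°C-58°C. Quantification used TMTpro 16plex LC-MS/MS with channel sums equalised, and values are log-two fold changes in thermal stability relative to solvent controls from duplicates.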

The chains behind the UniProt entries cited, without tags or fusion partners. Where a name states a change or a piece, a line headed by the entry shows the natural chain unless it says otherwise.
UniProt Q14012: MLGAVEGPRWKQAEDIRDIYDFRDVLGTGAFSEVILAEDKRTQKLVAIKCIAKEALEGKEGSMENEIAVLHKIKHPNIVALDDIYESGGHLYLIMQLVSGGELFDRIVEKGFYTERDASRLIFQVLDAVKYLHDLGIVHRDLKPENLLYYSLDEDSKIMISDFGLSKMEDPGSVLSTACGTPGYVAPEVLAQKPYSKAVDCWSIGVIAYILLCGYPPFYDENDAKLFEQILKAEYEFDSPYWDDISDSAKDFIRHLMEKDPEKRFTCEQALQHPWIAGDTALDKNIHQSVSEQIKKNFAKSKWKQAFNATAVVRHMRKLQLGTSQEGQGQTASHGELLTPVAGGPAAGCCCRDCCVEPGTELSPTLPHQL
UniProt Q9H9S4: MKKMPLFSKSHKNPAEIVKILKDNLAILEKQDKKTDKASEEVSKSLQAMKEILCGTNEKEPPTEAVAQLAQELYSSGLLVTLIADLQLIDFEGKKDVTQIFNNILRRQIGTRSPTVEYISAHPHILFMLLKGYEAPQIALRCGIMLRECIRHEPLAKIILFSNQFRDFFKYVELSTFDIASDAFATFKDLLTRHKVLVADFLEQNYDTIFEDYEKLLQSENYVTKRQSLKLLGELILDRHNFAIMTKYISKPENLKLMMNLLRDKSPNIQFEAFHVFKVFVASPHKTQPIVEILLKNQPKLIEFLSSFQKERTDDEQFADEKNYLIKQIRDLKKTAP
UniProt Q3KRA6: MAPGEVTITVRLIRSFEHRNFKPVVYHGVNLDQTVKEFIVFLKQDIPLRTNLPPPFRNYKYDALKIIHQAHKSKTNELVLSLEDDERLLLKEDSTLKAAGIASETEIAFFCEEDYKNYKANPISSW
UniProt Q9H6X5: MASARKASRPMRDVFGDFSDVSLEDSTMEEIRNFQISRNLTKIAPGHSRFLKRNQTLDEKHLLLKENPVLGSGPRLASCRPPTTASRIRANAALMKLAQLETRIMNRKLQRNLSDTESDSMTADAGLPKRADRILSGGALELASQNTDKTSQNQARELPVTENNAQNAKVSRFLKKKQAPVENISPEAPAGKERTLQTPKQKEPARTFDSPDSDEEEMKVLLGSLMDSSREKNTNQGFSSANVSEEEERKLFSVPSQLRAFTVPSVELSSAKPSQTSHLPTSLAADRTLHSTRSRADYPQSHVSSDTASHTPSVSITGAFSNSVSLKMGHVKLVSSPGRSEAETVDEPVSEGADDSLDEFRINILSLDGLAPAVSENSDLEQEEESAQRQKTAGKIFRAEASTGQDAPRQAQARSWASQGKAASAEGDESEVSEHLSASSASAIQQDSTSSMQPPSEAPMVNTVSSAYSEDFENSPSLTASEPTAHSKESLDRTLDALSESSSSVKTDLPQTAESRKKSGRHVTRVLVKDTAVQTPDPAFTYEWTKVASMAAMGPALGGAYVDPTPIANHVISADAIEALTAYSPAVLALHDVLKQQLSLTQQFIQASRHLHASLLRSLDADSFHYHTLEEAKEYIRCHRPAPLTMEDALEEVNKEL
UniProt Q9BVC5: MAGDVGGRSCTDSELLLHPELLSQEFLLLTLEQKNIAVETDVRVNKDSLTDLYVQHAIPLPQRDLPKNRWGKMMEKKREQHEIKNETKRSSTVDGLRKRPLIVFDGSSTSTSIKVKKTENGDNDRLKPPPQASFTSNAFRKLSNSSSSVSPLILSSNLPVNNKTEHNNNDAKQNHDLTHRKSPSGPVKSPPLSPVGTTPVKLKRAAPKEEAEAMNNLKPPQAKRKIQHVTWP
UniProt Q13137: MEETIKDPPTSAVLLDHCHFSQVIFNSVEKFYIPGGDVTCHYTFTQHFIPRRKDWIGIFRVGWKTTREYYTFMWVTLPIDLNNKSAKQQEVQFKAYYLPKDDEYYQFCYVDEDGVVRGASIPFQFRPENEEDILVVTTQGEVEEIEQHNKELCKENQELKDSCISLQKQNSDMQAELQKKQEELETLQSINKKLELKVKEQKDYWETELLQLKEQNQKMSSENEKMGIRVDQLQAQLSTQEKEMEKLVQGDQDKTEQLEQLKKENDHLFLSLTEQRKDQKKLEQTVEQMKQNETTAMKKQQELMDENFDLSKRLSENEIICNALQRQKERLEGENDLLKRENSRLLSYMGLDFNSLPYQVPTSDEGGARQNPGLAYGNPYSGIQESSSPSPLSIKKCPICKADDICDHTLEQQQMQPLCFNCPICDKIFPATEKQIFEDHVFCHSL
UniProt Q01518, whole entry, looked up: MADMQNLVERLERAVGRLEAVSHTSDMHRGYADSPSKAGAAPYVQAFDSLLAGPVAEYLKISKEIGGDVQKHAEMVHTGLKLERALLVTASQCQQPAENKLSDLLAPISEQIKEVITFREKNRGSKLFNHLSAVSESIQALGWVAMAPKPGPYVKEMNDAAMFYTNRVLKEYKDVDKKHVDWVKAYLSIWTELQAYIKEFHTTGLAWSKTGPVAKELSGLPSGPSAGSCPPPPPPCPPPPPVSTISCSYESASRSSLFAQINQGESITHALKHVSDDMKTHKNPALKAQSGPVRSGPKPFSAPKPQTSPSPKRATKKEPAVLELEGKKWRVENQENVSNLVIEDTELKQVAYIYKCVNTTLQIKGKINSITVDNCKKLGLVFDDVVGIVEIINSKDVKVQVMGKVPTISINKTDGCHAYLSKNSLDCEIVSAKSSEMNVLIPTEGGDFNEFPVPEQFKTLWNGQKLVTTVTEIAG
UniProt P00736: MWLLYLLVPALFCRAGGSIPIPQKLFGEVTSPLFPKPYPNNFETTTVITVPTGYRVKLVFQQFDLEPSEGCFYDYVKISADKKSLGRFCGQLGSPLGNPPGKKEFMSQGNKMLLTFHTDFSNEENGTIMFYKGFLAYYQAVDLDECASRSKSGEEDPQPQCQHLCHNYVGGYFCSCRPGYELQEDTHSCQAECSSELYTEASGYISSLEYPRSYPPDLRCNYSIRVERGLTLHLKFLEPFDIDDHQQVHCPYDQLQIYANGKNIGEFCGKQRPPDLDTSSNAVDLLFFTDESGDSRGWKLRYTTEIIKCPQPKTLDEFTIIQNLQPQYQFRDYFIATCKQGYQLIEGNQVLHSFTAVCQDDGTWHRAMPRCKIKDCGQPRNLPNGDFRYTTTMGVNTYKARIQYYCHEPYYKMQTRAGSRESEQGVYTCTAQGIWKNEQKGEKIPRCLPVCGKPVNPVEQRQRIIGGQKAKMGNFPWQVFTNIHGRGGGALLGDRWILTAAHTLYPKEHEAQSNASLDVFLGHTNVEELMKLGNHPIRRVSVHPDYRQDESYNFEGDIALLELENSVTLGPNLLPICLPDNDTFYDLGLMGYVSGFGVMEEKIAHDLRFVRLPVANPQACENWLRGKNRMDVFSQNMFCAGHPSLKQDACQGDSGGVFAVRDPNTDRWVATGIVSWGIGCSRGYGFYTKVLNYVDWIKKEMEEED
UniProt Q32NC0: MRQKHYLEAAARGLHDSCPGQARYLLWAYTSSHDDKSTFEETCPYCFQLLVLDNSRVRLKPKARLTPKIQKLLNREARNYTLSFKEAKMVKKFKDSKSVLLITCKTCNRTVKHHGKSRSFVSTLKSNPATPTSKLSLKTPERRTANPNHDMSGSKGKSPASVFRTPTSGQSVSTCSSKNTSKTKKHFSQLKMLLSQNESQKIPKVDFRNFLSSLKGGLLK
UniProt Q16581: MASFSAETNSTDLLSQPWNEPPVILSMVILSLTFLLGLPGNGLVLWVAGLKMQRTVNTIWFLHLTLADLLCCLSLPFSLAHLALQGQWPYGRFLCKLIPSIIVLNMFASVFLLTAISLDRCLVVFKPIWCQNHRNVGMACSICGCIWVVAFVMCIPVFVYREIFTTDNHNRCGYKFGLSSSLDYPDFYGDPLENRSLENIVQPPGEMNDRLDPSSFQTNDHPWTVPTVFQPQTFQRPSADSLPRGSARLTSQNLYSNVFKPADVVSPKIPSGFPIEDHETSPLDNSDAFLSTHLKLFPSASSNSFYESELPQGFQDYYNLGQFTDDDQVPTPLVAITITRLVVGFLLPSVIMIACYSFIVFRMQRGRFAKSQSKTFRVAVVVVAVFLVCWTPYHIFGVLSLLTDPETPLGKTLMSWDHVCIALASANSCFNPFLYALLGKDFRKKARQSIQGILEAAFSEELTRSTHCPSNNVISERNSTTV
UniProt Q9BSF0: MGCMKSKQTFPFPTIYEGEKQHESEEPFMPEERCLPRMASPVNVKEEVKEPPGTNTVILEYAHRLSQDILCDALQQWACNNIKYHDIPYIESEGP
UniProt Q96L46: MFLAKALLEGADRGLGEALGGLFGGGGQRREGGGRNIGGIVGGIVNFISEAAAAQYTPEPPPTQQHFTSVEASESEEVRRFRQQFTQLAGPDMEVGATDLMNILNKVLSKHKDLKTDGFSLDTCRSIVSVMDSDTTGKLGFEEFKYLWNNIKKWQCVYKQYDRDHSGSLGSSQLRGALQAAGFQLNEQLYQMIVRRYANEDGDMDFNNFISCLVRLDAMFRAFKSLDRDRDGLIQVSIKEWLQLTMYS
UniProt Q9Y426: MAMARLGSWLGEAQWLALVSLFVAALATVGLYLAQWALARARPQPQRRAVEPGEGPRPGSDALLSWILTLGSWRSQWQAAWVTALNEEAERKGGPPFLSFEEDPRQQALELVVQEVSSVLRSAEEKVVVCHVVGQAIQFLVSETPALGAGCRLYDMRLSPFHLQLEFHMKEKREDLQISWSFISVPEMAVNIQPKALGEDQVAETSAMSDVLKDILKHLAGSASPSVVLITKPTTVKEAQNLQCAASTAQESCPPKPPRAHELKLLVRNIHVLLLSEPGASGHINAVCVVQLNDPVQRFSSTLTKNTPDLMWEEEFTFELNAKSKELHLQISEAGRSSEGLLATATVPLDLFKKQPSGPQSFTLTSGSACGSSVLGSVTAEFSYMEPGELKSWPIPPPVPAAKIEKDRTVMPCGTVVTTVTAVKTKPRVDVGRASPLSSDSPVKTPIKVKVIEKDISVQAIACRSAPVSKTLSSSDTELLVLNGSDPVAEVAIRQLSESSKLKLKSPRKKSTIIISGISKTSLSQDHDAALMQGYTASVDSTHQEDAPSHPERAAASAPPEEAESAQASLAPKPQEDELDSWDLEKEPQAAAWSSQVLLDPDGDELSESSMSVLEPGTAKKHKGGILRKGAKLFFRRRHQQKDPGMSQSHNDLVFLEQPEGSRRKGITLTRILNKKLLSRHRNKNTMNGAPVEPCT

Compound in assay [2]: CCN(CCCOc1ccc2c(Nc3cc(CC(=O)Nc4cccc(F)c4)[nH]n3)ncnc2c1)CCOP(=O)(O)O [barasertib]
The gist of the method:
as §1

Compound in assay [3]: CC[C@@H]1C(=O)N(C)c2cnc(Nc3ccc(C(=O)NC4CCN(C)CC4)cc3OC)nc2N1C1CCCC1
Summed up:
as §1

Compound in assay [4]: CC[C@@H]1C(=O)N(C)c2cnc(Nc3ccc(C(=O)N[C@H]4CC[C@H](N5CCN(CC6CC6)CC5)CC4)cc3OC)nc2N1C(C)C [volasertib]
The gist of the method: as §1

Compound in assay [5]: CCn1c(C(=O)N(C2CC2)C2CC2)cc2c3c(ncn3C)c(Nc3cc(C)n(C)n3)nc21
The gist of the method: as §1

Compound in assay [6]: CCn1cc(-c2ccnc3[nH]c(-c4cccc(CN(C)C)c4)cc23)c(-c2ccc(NC(=O)N(C)C)cc2)n1
Summed up:
as §1

Compound in assay [7]: CN1CCC(CNc2ccc3ncc(-c4cccc(OC(F)(F)F)c4)n3n2)CC1
Summed up:
as §1

Compound in assay [8]: CN1CCN(CCOc2cc(OC3CCOCC3)c3c(Nc4c(Cl)ccc5c4OCO5)ncnc3c2)CC1 [saracatinib]
Summed up: as §1

Compound in assay [9]: CN1CCN(c2nc(C3=C(c4c[nH]c5ccccc45)C(=O)NC3=O)c3ccccc3n2)CC1 [sotrastaurin]
Summed up:
as §1

Compound in assay [10]: CN1CC[C@H](c2c(O)cc(O)c3c(=O)cc(-c4ccccc4Cl)oc23)[C@H](O)C1 [alvocidib]
Summed up: as §1

Compound in assay [11]: CN1CCc2c(c3ccccc3n2Cc2ccc(C(=O)NO)cc2)C1 [Tubastatin A]
Summed up: as §1

Compound in assay [12]: CNC(=O)C1=CC=CC=C1NC2=NC(=NC=C2Cl)NC3=C(C=C(C=C3)N4CCOCC4)OC
The gist of the method:
as §1

Compound in assay [13]: CNC(=O)c1ccc(Nc2ncc(C(F)(F)F)c(NCc3nccnc3N(C)S(C)(=O)=O)n2)cc1 [defactinib]
The gist of the method: as §1

Compound in assay [14]: CNc1nc(-c2ccc3c(N)n[nH]c3c2)cc(N2C[C@@H](C(=O)NC3CCCCC3)CC[C@H]2C)n1
The gist of the method:
as §1

Compound in assay [15]: COC(=O)N[C@@H](C)CNc1nccc(-c2cn(C(C)C)nc2-c2cc(Cl)cc(NS(C)(=O)=O)c2F)n1 [encorafenib]
The gist of the method:
as §1

Compound in assay [16]: COC(=O)[C@H](CCSC)NC(=O)C1=C(C=C(C=C1)NC[C@H](CS)N)C2=CC=CC=C2
Summed up:
as §1

Compound in assay [17]: COc1cc(Nc2ncc3c(n2)-c2ccc(Cl)cc2C(c2c(F)cccc2OC)=NC3)ccc1C(=O)O [alisertib]
Summed up: as §1

Compound in assay [18]: COc1cc2nc(-c3cc(F)ccc3O)nc(N[C@@H]3CNC[C@H]3C(C)(C)O)c2cc1OC
Summed up:
as §1

Compound in assay [19]: COc1cc2ncnc(Nc3ccc(F)c(Cl)c3)c2cc1OCCCN1CCOCC1 [gefitinib]
Summed up:
as §1

Compound in assay [20]: CCCS(=O)(=O)Nc1ccc(F)c(C(=O)c2c[nH]c3ncc(Cl)cc23)c1F
Summed up:
as §1

Some of the results follow.

With CAMK1 (UniProt Q14012), the log2 fold change in assay [1] is inactive: -0.094; in assay [2] it was inactive: 0.027; in assay [3] it was inactive: 0.106; in assay [4], inactive: -0.018; in [5] it was inactive: -0.06; in assay [6], inactive: -0.095. Moreover, the log2 fold change is inactive: 0.272 in [7]; inactive: -0.061 in assay [8]; inactive: -0.016 in assay [9]; inactive: -0.074 in assay [10]; inactive: 0 in assay [11]; inactive: 0.067 in [12]. For the same target, the log2 fold change in assay [13] was inactive: 0.04; in assay [14], inactive: -0.036; in assay [15], inactive: -0.054; in assay [16], inactive: -0.032; in assay [17] it was inactive: 0.016; in assay [18], inactive: 0.029. In addition, the log2 fold change in assay [19] is inactive: -0.01.
In the case of CANX (UniProt D6RHJ3), the log2 fold change is inactive: -0.033 in assay [1]; inactive: -0.04 in assay [20]; inactive: 0.017 in [4]; inactive: 0.174 in [13]; inactive: 0.068 in [17]; inactive: 0.07 in [18]. Besides, the log2 fold change in assay [19] was inactive: -0.242.
On to CAB39L (UniProt Q9H9S4), for which the log2 fold change in [1] was inactive: -0.096; in [20], inactive: 0.049; in [2] it was inactive: 0.029; in assay [4], inactive: -0.028; in [5], inactive: -0.004; in assay [6], inactive: -0.047. Further, the log2 fold change in [7] was inactive: 0.033; in assay [8] it was inactive: 0.015; in [9], inactive: -0.004; in assay [10] it was inactive: -0.041; in assay [11], inactive: -0.048; in assay [12] it was inactive: -0.001. Further, the log2 fold change is inactive: 0.013 in assay [13]; inactive: 0.05 in [14]; inactive: -0.034 in assay [17]; inactive: 0.076 in assay [18]; inactive: 0.02 in assay [19].
Consider C2orf76 (UniProt Q3KRA6), for which the log2 fold change in assay [20] is inactive: 0.049; in assay [2], inactive: 0.029; in assay [3], inactive: 0.096; in assay [4], inactive: -0.005; in [5], inactive: -0.01; in assay [6] it was inactive: -0.005. For the same target, the log2 fold change is inactive: -0.039 in [7]; inactive: -0.023 in [8]; inactive: 0.037 in assay [9]; inactive: 0.051 in assay [10]; inactive: 0.052 in assay [11]; inactive: -0.035 in [12]. Further, the log2 fold change is inactive: 0.008 in assay [14]; inactive: 0.017 in [15]; inactive: 0.038 in [16]; inactive: 0.018 in assay [17]; inactive: -0.013 in assay [18]; inactive: -0.005 in assay [19].
Turning to C19orf44 (UniProt Q9H6X5), the log2 fold change was inactive: 0.049 in [5], inactive: -0.304 in assay [11], inactive: 0.037 in assay [17] and inactive: 0.119 in assay [19].
Take C2orf49 isoform 2 (UniProt Q9BVC5): the log2 fold change in assay [5] is inactive: 0.033; in assay [11] it was inactive: 0.005.
Regarding CALCOCO2 isoform 5 (UniProt Q13137), the log2 fold change in assay [6] is inactive: -0.58; in assay [7], inactive: -0.018; in [10], inactive: -0.11; in [17] it was inactive: -0.106; in assay [19], inactive: 0.183.
CAP1 isoform 2 (UniProt Q01518): the log2 fold change is inactive: -0.16 in assay [2]; inactive: -0.308 in [5]; inactive: -0.077 in [6]; inactive: -0.041 in assay [7]; inactive: 0.122 in assay [8]; inactive: 0.258 in [9]. For the same target, the log2 fold change in assay [10] was inactive: 0.031; in [11], inactive: 0.213; in [12], inactive: -0.051; in [14] it was inactive: -0.041.
Turning to C1R (UniProt P00736), the log2 fold change in assay [20] is inactive: 0.031; in assay [4], inactive: 0.07; in assay [18], inactive: 0.086.
On to C18orf21 (UniProt Q32NC0), for which the log2 fold change is inactive: 0.054 in assay [20]; inactive: -0.031 in assay [2]; inactive: 0.065 in [4]; inactive: 0.006 in assay [5]; inactive: -0.06 in assay [6]; inactive: 0.015 in [7]. In addition, the log2 fold change in assay [8] is inactive: -0.025; in assay [9], inactive: 0.015; in assay [10], inactive: 0.004; in [11], inactive: -0.119; in assay [12], inactive: -0.028; in assay [14], inactive: -0.017. Also, the log2 fold change in assay [17] is inactive: -0.077; in [18], inactive: -0.172; in assay [19] it was inactive: -0.016.
As for C3AR1 (UniProt Q16581), the log2 fold change in assay [2] was inactive: -0.172; in [6], active: -0.664; in assay [7], inactive: -0.286; in assay [9], inactive: -0.004; in [10], inactive: 0.055; in assay [17], inactive: 0.358. In [19], the log2 fold change is inactive: 0.053.
Turning to C2orf88 (UniProt Q9BSF0), the log2 fold change is inactive: 0.02 in assay [5]; inactive: 0.309 in assay [6]; inactive: -0.034 in assay [7]; inactive: -0.058 in [9]; inactive: 0.068 in assay [10]; inactive: -0.136 in assay [11].
For the target CAPNS2 (UniProt Q96L46), the log2 fold change in [5] was inactive: 0.033; in assay [11], inactive: 0.153.
CALR (UniProt K7EJB9): the log2 fold change in assay [20] is inactive: 0.042; in [4] it was inactive: 0.039; in assay [17] it was inactive: 0.047; in assay [18] it was inactive: 0.008; in assay [19], inactive: -0.03.
On to C2CD2 (UniProt Q9Y426), for which the log2 fold change is inactive: 0.114 in [2]; inactive: -0.064 in assay [3]; inactive: -0.004 in [5]; inactive: 0.036 in assay [6]; inactive: -0.11 in assay [7]; inactive: -0.006 in assay [8]. For the same target, the log2 fold change in assay [9] was inactive: 0.083; in assay [10], inactive: -0.068; in assay [11], inactive: -0.008; in assay [12], inactive: -0.003; in [14], inactive: 0.139; in [15], inactive: 0.025. Besides, the log2 fold change in assay [16] is inactive: -0.166.

(Values after the supplement of paper PMC10849652.)
